Measured values published in the supplement of paper PMC10849652.
The list shows a part of the results.

Sequences of proteins named here, by UniProt entry; tags and fusion partners are left off. A change or cut given only in a name is not applied to a line headed by its entry.
UniProt Q8IXS8: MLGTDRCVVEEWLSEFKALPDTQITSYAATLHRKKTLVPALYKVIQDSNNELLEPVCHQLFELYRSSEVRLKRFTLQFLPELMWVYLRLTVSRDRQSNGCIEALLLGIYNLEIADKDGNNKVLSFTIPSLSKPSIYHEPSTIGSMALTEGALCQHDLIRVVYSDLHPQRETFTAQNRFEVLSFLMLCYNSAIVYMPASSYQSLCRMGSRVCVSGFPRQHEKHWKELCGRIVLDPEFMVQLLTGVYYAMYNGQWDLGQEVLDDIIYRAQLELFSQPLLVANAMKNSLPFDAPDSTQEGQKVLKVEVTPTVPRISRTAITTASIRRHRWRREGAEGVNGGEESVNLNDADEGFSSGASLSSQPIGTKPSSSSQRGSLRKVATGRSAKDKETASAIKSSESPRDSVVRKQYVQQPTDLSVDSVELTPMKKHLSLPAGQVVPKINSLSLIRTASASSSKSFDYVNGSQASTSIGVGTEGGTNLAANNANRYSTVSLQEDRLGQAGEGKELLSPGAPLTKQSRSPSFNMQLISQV
UniProt Q16134: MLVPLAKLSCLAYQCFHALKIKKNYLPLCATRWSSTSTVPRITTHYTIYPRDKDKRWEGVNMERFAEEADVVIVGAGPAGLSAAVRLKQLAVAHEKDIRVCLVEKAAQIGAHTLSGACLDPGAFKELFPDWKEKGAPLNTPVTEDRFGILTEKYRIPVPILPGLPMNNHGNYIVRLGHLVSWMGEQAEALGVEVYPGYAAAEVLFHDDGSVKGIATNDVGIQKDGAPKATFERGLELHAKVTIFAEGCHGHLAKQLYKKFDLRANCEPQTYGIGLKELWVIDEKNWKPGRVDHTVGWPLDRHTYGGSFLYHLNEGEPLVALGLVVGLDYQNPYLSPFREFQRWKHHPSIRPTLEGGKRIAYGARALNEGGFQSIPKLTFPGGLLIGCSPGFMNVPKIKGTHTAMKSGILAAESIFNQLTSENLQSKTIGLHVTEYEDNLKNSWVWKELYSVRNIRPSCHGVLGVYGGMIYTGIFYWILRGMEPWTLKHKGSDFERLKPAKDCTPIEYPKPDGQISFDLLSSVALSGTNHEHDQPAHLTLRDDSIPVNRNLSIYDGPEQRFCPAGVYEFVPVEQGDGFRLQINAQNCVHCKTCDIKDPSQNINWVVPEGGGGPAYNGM
UniProt Q9H4H8: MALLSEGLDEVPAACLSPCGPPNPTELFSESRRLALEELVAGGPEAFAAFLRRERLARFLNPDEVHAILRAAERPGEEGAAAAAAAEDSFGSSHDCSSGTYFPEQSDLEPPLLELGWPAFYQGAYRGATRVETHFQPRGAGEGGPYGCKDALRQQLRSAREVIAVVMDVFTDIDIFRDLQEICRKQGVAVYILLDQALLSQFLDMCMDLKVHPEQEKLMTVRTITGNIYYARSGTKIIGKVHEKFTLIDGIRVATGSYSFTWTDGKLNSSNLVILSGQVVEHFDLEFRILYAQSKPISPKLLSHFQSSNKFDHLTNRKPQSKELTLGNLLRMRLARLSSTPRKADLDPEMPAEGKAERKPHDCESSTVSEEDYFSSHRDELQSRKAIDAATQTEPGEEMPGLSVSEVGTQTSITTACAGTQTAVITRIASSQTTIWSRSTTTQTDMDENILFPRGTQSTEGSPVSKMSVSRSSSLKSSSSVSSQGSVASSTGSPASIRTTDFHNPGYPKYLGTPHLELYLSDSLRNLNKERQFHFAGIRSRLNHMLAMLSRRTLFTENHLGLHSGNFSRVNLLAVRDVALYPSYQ
UniProt Q8IW50: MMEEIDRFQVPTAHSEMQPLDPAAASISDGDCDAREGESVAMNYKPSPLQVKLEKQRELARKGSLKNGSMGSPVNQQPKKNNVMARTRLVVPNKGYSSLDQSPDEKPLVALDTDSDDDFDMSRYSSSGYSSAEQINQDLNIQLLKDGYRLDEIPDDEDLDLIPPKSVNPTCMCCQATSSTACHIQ

Legend:
Assay in all cases: log2 fold change, soluble protein after heating vs DMSO (PISA); higher = thermal stabilisation; K562 lysate, 10 uM; active = over 0.2 and 3.5 SD of the protein, either way, in both replicates (recomputed)
vemurafenib = compound: CCCS(=O)(=O)Nc1ccc(F)c(C(=O)c2c[nH]c3ncc(-c4ccc(Cl)cc4)cc23)c1F [vemurafenib]
How it was run: (§1)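 Log-two fold change in thermal stability relative to solvent controls is reported from duplicates. For each sample, crude K562 extract from dounce-homogenised pellets in PBS pH 7.4 with 1 mM MgCl2, at 1 mg/mL protein, was treated with 10 μM compound for 30 min. Aliquots heated for 3 min across 48°C-58°C were pooled, brought to 0.5% NP-40 at 4°C and cleared at 21,000xg for 90 min. The supernatant was quantified by TMTpro 16plex LC-MS/MS with channel sums equalised.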

[1] = compound: CCCS(=O)(=O)Nc1ccc(F)c(C(=O)c2c[nH]c3ncc(Cl)cc23)c1F
How it was run: as §1

barasertib = compound: CCN(CCCOc1ccc2c(Nc3cc(CC(=O)Nc4cccc(F)c4)[nH]n3)ncnc2c1)CCOP(=O)(O)O [barasertib]
How it was run: as §1

[2] = compound: CC[C@@H]1C(=O)N(C)c2cnc(Nc3ccc(C(=O)NC4CCN(C)CC4)cc3OC)nc2N1C1CCCC1
How it was run: as §1

volasertib = compound: CC[C@@H]1C(=O)N(C)c2cnc(Nc3ccc(C(=O)N[C@H]4CC[C@H](N5CCN(CC6CC6)CC5)CC4)cc3OC)nc2N1C(C)C [volasertib]
How it was run: as §1

[3] = compound: CCn1c(C(=O)N(C2CC2)C2CC2)cc2c3c(ncn3C)c(Nc3cc(C)n(C)n3)nc21
How it was run: as §1

[4] = compound: CCn1cc(-c2ccnc3[nH]c(-c4cccc(CN(C)C)c4)cc23)c(-c2ccc(NC(=O)N(C)C)cc2)n1
How it was run: as §1

[5] = compound: CN1CCC(CNc2ccc3ncc(-c4cccc(OC(F)(F)F)c4)n3n2)CC1
How it was run: as §1

saracatinib = compound: CN1CCN(CCOc2cc(OC3CCOCC3)c3c(Nc4c(Cl)ccc5c4OCO5)ncnc3c2)CC1 [saracatinib]
How it was run: as §1

alvocidib = compound: CN1CC[C@H](c2c(O)cc(O)c3c(=O)cc(-c4ccccc4Cl)oc23)[C@H](O)C1 [alvocidib]
How it was run: as §1

Tubastatin A = compound: CN1CCc2c(c3ccccc3n2Cc2ccc(C(=O)NO)cc2)C1 [Tubastatin A]
How it was run: as §1

[6] = compound: CNC(=O)C1=CC=CC=C1NC2=NC(=NC=C2Cl)NC3=C(C=C(C=C3)N4CCOCC4)OC
How it was run: as §1

defactinib = compound: CNC(=O)c1ccc(Nc2ncc(C(F)(F)F)c(NCc3nccnc3N(C)S(C)(=O)=O)n2)cc1 [defactinib]
How it was run: as §1

[7] = compound: CNc1nc(-c2ccc3c(N)n[nH]c3c2)cc(N2C[C@@H](C(=O)NC3CCCCC3)CC[C@H]2C)n1
How it was run: as §1

encorafenib = compound: COC(=O)N[C@@H](C)CNc1nccc(-c2cn(C(C)C)nc2-c2cc(Cl)cc(NS(C)(=O)=O)c2F)n1 [encorafenib]
How it was run: as §1

[8] = compound: COC(=O)[C@H](CCSC)NC(=O)C1=C(C=C(C=C1)NC[C@H](CS)N)C2=CC=CC=C2
How it was run: as §1

[9] = compound: COc1cc2nc(-c3cc(F)ccc3O)nc(N[C@@H]3CNC[C@H]3C(C)(C)O)c2cc1OC
How it was run: as §1

sotrastaurin = compound: CN1CCN(c2nc(C3=C(c4c[nH]c5ccccc45)C(=O)NC3=O)c3ccccc3n2)CC1 [sotrastaurin]
How it was run: as §1

alisertib = compound: COc1cc(Nc2ncc3c(n2)-c2ccc(Cl)cc2C(c2c(F)cccc2OC)=NC3)ccc1C(=O)O [alisertib]
How it was run: as §1

gefitinib = compound: COc1cc2ncnc(Nc3ccc(F)c(Cl)c3)c2cc1OCCCN1CCOCC1 [gefitinib]
How it was run: as §1

Measured: log2 fold change

FAM126B (UniProt Q8IXS8)
inactive: vemurafenib 0.064 | [1] 0.027 | barasertib -0.129 | [2] 0.017 | volasertib -0.027 | [3] -0.26 | [4] -0.135 | [5] 0.187 | saracatinib 0.038 | alvocidib -0.077 | Tubastatin A -0.06 | [6] 0.079 | defactinib 0.1 | [7] -0.158 | encorafenib -0.077 | [8] -0.152 | [9] 0.091

ETFDH (UniProt Q16134)
inactive: vemurafenib -0.008 | [1] -0.005 | barasertib 0.03 | [2] -0.015 | volasertib -0.026 | [3] -0.013 | [4] -0.03 | [5] -0.022 | saracatinib 0.011 | sotrastaurin 0.005 | alvocidib 0.009 | Tubastatin A 0.044 | [6] -0.006 | defactinib -0.026 | [7] 0.146 | encorafenib -0.033 | [8] -0.038 | alisertib -0.002 | [9] -0.041 | gefitinib -0.012

FAM83D (UniProt Q9H4H8)
inactive: vemurafenib -0.015 | [1] 0 | barasertib 0.074 | [2] 0.045 | volasertib -0.047 | [3] -0.01 | [4] -0.052 | [5] 0.029 | saracatinib -0.008 | sotrastaurin 0.032 | alvocidib -0.009 | Tubastatin A -0.044 | [6] 0.005 | defactinib -0.007 | [7] 0.022 | encorafenib 0.026 | [8] 0.017 | alisertib 0.015 | [9] 0.062 | gefitinib 0.009

FAM219A (UniProt Q8IW50)
inactive: [1] -0.005 | barasertib 0.025 | [2] 0.092 | volasertib 0.009 | [3] -0.173 | [4] -0.185 | [5] 0.014 | saracatinib -0.045 | sotrastaurin -0.16 | alvocidib -0.017 | Tubastatin A 0.063 | [6] -0.025 | [7] -0.152 | encorafenib -0.018 | [8] -0.118 | [9] 0.058
